# Reference: the supplement of paper PMC8728848
# The other results are listed elsewhere or left out.
# B1: SJCP1531 (Schistosoma japonicum) (protein)
# chain: MFKVRIINLVNISTVLLLINLLQTKSQVNVEQLVTVLEVNIKAQLKNKTTEVLVEWNPLYQDNSMPEYRKLLDETCKLFLPFVNEKVPPSTYGGECTNANFSEAPQDGSYSRVNAELRLIYKYSDNPQIQTDRLQDDLNDREEFITSESSFVAYNPKFTVKIEKLFIPISESQTTPPPTTAKNDASKKDDDDNGGEDSKAPIDTFAMTASGNKGKKDDDDNGGEDSKAPIDTFAMTASGSKDERSTWTIIGIITLVVLIFVVIGGGITVFVKRC
# How the values were obtained:
# Test in all cases: glycan array binding signal (z-score within array); higher = stronger binding
# Settings in all cases: glycan notation: IUPAC condensed, linker removed
# [1] = target: Gal(b1-3)GlcNAc(b1-6)[Gal(b1-3)]GalNAc
# How it was run: (§1)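 Arrays were curated from the Consortium for Functional Glycomics database, 3228 in total, and kept only where the protein sequence was available. Binding is expressed as a within-array Z-score. This score was averaged across arrays of the same protein sequence at different concentrations or buffers and across linkers, and negative values can be read as non-binding.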
# [2] = target: Gal(b1-3)GlcNAc6S
# How it was run: as §1
# [3] = target: Gal(b1-3)[Fuc(a1-4)]GlcNAc
# How it was run: as §1
# [4] = target: Gal(b1-3)[Fuc(a1-4)]GlcNAc(b1-2)Man
# How it was run: as §1
# [5] = target: Gal(b1-3)[Fuc(a1-4)]GlcNAc(b1-2)Man(a1-3)[Gal(b1-3)[Fuc(a1-4)]GlcNAc(b1-2)Man(a1-6)]Man(b1-4)GlcNAc(b1-4)[Fuc(a1-6)]GlcNAc
# How it was run: as §1
# [6] = target: Gal(b1-3)[Fuc(a1-4)]GlcNAc(b1-3)Gal(b1-3)[Fuc(a1-4)]GlcNAc
# How it was run: as §1
# [7] = target: Gal(b1-3)[Fuc(a1-4)]GlcNAc(b1-3)Gal(b1-4)[Fuc(a1-3)]GlcNAc
# How it was run: as §1
# [8] = target: Gal(b1-3)[Fuc(a1-4)]GlcNAc(b1-6)GalNAc
# How it was run: as §1
# [9] = target: Gal(b1-3)[GlcNAc(b1-6)]GalNAc
# How it was run: as §1
# [10] = target: Gal(b1-3)[Neu5Ac(a2-6)]GalNAc
# How it was run: as §1
# [11] = target: Gal(b1-3)[Neu5Ac(a2-6)]GlcNAc(b1-4)Gal(b1-4)Glc
# How it was run: as §1
# [12] = target: Gal(b1-3)[Neu5Ac(b2-6)]GalNAc
# How it was run: as §1
# [13] = target: Gal(b1-4)Gal
# How it was run: as §1
# [14] = target: Gal(b1-4)GalNAc(a1-3)[Fuc(a1-2)]Gal(b1-4)GlcNAc
# How it was run: as §1
# [15] = target: Gal(b1-4)GalNAc(b1-3)[Fuc(a1-2)]Gal(b1-4)GlcNAc
# How it was run: as §1
# [16] = target: Gal(b1-4)Glc
# How it was run: as §1
# [17] = target: Gal(b1-4)Glc6S
# How it was run: as §1
# [18] = target: Gal(b1-4)GlcNAc
# How it was run: as §1
# [19] = target: Gal(b1-4)GlcNAc(a1-6)Gal(b1-4)GlcNAc
# How it was run: as §1
# [20] = target: Gal(b1-4)GlcNAc(b1-2)Man
# How it was run: as §1
# [21] = target: Gal(b1-4)GlcNAc(b1-2)Man(a1-3)Man(b1-4)GlcNAc(b1-4)GlcNAc
# How it was run: as §1
# [22] = target: Gal(b1-4)GlcNAc(b1-2)Man(a1-3)[Gal(b1-4)GlcNAc(b1-2)Man(a1-6)]Man(b1-4)GlcNAc(b1-4)GlcNAc
# How it was run: as §1
# [23] = target: Gal(b1-4)GlcNAc(b1-2)Man(a1-3)[Gal(b1-4)GlcNAc(b1-2)Man(a1-6)]Man(b1-4)GlcNAc(b1-4)[Fuc(a1-6)]GlcNAc
# How it was run: as §1
# [24] = target: Gal(b1-4)GlcNAc(b1-2)Man(a1-3)[Gal(b1-4)GlcNAc(b1-2)Man(a1-6)][Gal(b1-4)GlcNAc(b1-4)]Man(b1-4)GlcNAc(b1-4)[Fuc(a1-6)]GlcNAc
# How it was run: as §1
# [25] = target: Gal(b1-4)GlcNAc(b1-2)Man(a1-3)[Gal(b1-4)GlcNAc(b1-2)Man(a1-6)][GlcNAc(b1-4)]Man(b1-4)GlcNAc(b1-4)[Fuc(a1-6)]GlcNAc
# How it was run: as §1
# [26] = target: Gal(b1-4)GlcNAc(b1-2)Man(a1-3)[GlcNAc(b1-2)Man(a1-6)]Man(b1-4)GlcNAc(b1-4)GlcNAc
# How it was run: as §1
# [27] = target: Gal(b1-4)GlcNAc(b1-2)Man(a1-3)[GlcNAc(b1-4)][Gal(b1-4)GlcNAc(b1-2)Man(a1-6)]Man(b1-4)GlcNAc(b1-4)GlcNAc
# How it was run: as §1
# [28] = target: Gal(b1-4)GlcNAc(b1-2)Man(a1-3)[Man(a1-6)]Man(b1-4)GlcNAc(b1-4)GlcNAc
# How it was run: as §1
# [29] = target: Gal(b1-4)GlcNAc(b1-2)Man(a1-6)Man(b1-4)GlcNAc(b1-4)GlcNAc
# How it was run: as §1
# [30] = target: Gal(b1-4)GlcNAc(b1-2)Man(a1-6)[GlcNAc(b1-2)Man(a1-3)]Man(b1-4)GlcNAc(b1-4)GlcNAc
# How it was run: as §1
# [31] = target: Gal(b1-4)GlcNAc(b1-2)Man(a1-6)[Man(a1-3)]Man(b1-4)GlcNAc(b1-4)GlcNAc
# How it was run: as §1
# [32] = target: Gal(b1-4)GlcNAc(b1-2)[Gal(b1-4)GlcNAc(b1-4)]Man(a1-3)[Gal(b1-4)GlcNAc(b1-2)Man(a1-6)]Man(b1-4)GlcNAc(b1-4)GlcNAc
# How it was run: as §1
# [33] = target: Gal(b1-4)GlcNAc(b1-2)[Gal(b1-4)GlcNAc(b1-4)]Man(a1-3)[Gal(b1-4)GlcNAc(b1-2)[Gal(b1-4)GlcNAc(b1-6)]Man(a1-6)]Man(b1-4)GlcNAc(b1-4)GlcNAc
# How it was run: as §1
# [34] = target: Gal(b1-4)GlcNAc(b1-2)[Gal(b1-4)GlcNAc(b1-4)]Man(a1-3)[GlcNAc(b1-4)][Gal(b1-4)GlcNAc(b1-2)Man(a1-6)]Man(b1-4)GlcNAc(b1-4)GlcNAc
# How it was run: as §1
# [35] = target: Gal(b1-4)GlcNAc(b1-2)[Gal(b1-4)GlcNAc(b1-4)]Man(a1-3)[GlcNAc(b1-4)][Gal(b1-4)GlcNAc(b1-2)[Gal(b1-4)GlcNAc(b1-6)]Man(a1-6)]Man(b1-4)GlcNAc(b1-4)GlcNAc
# How it was run: as §1
# [36] = target: Gal(b1-4)GlcNAc(b1-2)[Gal(b1-4)GlcNAc(b1-6)]Man(a1-6)[Gal(b1-4)GlcNAc(b1-2)Man(a1-3)]Man(b1-4)GlcNAc(b1-4)GlcNAc
# How it was run: as §1
# [37] = target: Gal(b1-4)GlcNAc(b1-2)[Gal(b1-4)GlcNAc(b1-6)]Man(a1-6)[Gal(b1-4)GlcNAc(b1-2)Man(a1-3)]Man(b1-4)GlcNAc(b1-4)[Fuc(a1-6)]GlcNAc
# How it was run: as §1
binder,measurement,setting,value
B1,glycan array binding signal (z-score),[1],-0.693
same,glycan array binding signal (z-score),[2],-1.17
same,glycan array binding signal (z-score),[3],-0.983
same,glycan array binding signal (z-score),[4],1.86
same,glycan array binding signal (z-score),[5],0.563
same,glycan array binding signal (z-score),[6],-0.008
same,glycan array binding signal (z-score),[7],0.284
same,glycan array binding signal (z-score),[8],-0.809
same,glycan array binding signal (z-score),[9],-0.044
same,glycan array binding signal (z-score),[10],-0.726
same,glycan array binding signal (z-score),[11],-1.38
same,glycan array binding signal (z-score),[12],-0.233
same,glycan array binding signal (z-score),[13],-0.573
same,glycan array binding signal (z-score),[14],1.14
same,glycan array binding signal (z-score),[15],-0.618
same,glycan array binding signal (z-score),[16],-0.654
same,glycan array binding signal (z-score),[17],1.1
same,glycan array binding signal (z-score),[18],-0.495
same,glycan array binding signal (z-score),[19],-0.586
same,glycan array binding signal (z-score),[20],0.588
same,glycan array binding signal (z-score),[21],0.954
same,glycan array binding signal (z-score),[22],-0.745
same,glycan array binding signal (z-score),[23],-0.521
same,glycan array binding signal (z-score),[24],-0.361
same,glycan array binding signal (z-score),[25],-0.342
same,glycan array binding signal (z-score),[26],-0.771
same,glycan array binding signal (z-score),[27],0.817
same,glycan array binding signal (z-score),[28],-0.942
same,glycan array binding signal (z-score),[29],0.976
same,glycan array binding signal (z-score),[30],0.263
same,glycan array binding signal (z-score),[31],0.218
same,glycan array binding signal (z-score),[32],0.725
same,glycan array binding signal (z-score),[33],-1.04
same,glycan array binding signal (z-score),[34],0.279
same,glycan array binding signal (z-score),[35],-0.795
same,glycan array binding signal (z-score),[36],-0.726
same,glycan array binding signal (z-score),[37],-0.188

# Looked up one by one from the list above, 3 records:
binder,measurement,setting,value
B1,glycan array binding signal (z-score),[24],-0.361
same,glycan array binding signal (z-score),[15],-0.618
same,glycan array binding signal (z-score),[5],0.563
